# Screening data, single-dose tests

Protein sequences, listed by entry. Tags and fused reporters are not part of them. Residues count along the entry.
UniProt P9WPC5, whole entry: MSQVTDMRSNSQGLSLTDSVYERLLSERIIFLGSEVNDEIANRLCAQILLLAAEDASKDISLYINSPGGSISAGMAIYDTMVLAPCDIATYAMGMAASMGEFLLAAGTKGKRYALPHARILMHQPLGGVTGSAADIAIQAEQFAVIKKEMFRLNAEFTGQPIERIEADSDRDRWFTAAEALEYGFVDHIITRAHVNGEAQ
UniProt P9WPC3, whole entry partner: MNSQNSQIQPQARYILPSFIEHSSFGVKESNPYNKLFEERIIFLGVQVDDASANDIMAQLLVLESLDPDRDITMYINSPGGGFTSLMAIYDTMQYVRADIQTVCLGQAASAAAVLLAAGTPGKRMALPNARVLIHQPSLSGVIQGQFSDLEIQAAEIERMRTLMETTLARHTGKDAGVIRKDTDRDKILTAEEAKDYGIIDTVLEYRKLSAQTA
UniProt I6X8D2, whole entry: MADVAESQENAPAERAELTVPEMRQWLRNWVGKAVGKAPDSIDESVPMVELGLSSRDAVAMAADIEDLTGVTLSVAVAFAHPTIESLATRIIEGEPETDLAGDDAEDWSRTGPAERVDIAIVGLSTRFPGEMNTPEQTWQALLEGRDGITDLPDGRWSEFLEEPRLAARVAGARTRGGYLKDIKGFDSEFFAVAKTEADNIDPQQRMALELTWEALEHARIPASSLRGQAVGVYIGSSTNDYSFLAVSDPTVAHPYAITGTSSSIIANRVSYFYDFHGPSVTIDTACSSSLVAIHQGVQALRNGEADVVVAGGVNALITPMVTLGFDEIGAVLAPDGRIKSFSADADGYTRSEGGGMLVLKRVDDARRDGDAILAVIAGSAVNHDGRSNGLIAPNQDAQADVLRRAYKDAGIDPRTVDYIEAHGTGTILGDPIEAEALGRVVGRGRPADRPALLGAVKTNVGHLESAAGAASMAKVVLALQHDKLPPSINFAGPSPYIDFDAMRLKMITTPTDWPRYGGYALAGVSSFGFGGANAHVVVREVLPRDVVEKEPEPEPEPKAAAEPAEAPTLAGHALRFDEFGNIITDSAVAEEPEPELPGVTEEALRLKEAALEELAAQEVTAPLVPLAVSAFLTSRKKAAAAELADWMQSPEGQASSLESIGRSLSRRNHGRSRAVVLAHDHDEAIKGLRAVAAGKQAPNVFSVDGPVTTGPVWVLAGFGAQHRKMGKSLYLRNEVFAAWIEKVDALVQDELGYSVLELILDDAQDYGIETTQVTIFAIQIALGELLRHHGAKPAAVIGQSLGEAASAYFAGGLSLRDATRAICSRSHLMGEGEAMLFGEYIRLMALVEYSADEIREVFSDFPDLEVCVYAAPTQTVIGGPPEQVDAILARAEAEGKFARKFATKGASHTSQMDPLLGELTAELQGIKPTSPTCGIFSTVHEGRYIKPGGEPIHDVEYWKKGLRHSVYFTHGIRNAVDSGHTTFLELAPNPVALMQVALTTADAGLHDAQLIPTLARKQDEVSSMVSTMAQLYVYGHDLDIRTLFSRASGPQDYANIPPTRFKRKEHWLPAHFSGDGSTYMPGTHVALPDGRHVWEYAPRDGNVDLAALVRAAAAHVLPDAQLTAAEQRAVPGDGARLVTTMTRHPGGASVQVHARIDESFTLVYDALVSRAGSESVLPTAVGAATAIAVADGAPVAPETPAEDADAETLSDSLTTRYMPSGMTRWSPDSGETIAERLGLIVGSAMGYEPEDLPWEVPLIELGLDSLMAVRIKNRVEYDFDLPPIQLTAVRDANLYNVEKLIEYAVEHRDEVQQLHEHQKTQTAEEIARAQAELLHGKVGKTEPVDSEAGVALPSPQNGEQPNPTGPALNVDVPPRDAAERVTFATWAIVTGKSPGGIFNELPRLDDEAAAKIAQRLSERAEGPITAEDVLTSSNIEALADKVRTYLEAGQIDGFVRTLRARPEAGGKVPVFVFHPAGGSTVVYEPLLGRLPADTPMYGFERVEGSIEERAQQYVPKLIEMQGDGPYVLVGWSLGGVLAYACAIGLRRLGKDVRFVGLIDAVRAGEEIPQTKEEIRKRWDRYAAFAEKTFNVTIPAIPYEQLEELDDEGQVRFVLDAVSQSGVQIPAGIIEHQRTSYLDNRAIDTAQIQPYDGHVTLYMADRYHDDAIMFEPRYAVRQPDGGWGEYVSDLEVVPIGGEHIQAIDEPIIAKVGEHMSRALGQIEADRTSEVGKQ
UniProt Q8IDJ8, 1-583: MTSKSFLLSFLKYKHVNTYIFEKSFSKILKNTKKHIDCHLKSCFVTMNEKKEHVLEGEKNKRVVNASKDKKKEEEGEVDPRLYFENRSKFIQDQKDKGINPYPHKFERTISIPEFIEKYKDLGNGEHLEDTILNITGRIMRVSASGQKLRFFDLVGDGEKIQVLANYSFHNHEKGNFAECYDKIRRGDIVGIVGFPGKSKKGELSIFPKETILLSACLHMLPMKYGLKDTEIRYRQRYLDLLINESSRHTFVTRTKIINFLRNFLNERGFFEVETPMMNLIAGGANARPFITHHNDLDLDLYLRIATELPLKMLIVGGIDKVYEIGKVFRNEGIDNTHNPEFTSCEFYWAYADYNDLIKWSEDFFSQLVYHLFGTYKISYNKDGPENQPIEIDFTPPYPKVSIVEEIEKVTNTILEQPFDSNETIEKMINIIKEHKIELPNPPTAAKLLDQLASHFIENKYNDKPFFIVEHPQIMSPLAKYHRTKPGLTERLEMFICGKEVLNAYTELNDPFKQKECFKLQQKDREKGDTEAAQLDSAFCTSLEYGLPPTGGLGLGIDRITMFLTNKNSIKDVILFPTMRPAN

Data taken from ChEMBL document CHEMBL3988442, “University of Dundee, Small-Polar-MMV Screening Library” (2021).

A: 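Protease assay of ClpP1P2, read by the AMC dye that it sets free. Target: ClpP1P2, Mycobacterium tuberculosis (UniProt P9WPC5 and UniProt P9WPC3). Tested at 50 µM. Higher reads as stronger inhibition, judged from the few compounds that gave an IC50. Most other retested compounds had strongly negative values. About 69,000 compounds were tested under these conditions; 0.015% (about 10) showed 50% or more at least once.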
B: 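Cell assay of Leishmania donovani living inside macrophages; the read-out is not stated. Concentration: 30 µM. The record gives no direction; compounds that gave an IC50 in retests scored well above the rest, so higher reads as stronger inhibition. Size under these conditions: about 69,000 compounds, about 1,000 of them at 50% or above in at least one test.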
C: 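Polyketide synthase Pks13, Mycobacterium tuberculosis (UniProt I6X8D2). Enzyme assay of the thioesterase domain of polyketide synthase 13; the read-out is not stated. Concentration: 30 µM. Higher reads as stronger inhibition (inferred from which compounds were picked for retests). Size under these conditions: about 67,000 compounds, about 300 of them at 50% or above in at least one test.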
D: 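Lysine-tRNA ligase, Plasmodium falciparum 3D7 (UniProt Q8IDJ8). Enzyme assay of the cytosolic lysyl-tRNA synthetase in 384-well plates, read by luminescence. Tested at 30 µM. Higher reads as stronger inhibition, judged from the few compounds that gave an IC50. About 69,000 compounds were tested under these conditions; 0.071% (about 49) showed 50% or more at least once.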
E: 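Assay of Toxoplasma gondii numbers, read through their beta-galactosidase reporter with a colour substrate. Tested at 10 µM. The record gives no direction; the compounds picked for IC50 retests had high values, so higher reads as fewer parasites. Size under these conditions: about 67,000 compounds, about 260 of them at 50% or above in at least one test.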

Results are given as percent effect. The controls that fix the scale are not given in the record; negative values are as filed. The compounds are a random part of those screened. Two or more numbers in one place are separate tests of the same structure; such repeats can differ widely.

With Cc1cc2ccccc2n1CC(=O)NC(C)C(=O)N1CCOCC1 (stereo not given) the screen gave A: -6.018%; B: 17.03%; C: 6.446%; D: 0.7635%; E: 4.506%. For CCN(CC)C(=O)CN(C)C1CCc2ccccc21 (stereo not given) the result was A: 16.47%; B: 25.17%; C: -9.713%; D: 1.322%; E: -10.87%. For CCOc1cc(C(=O)N2CCOCC2)cc2occc12 the result was A: -3%; B: -8.523%; C: -1.787%; D: 4.249%; E: -27.73%. Result for CCn1c(CN(C)C)nnc1C1CCN(Cc2ccc(Cl)cc2F)CC1 was A: 9.753%; B: 16.28%; C: -0.661%; D: 7.342%; E: -11.27%.

With OCCNc1nc(Nc2ccccc2)c2nccnc2n1 the screen gave A: 33.48%; B: -9.404%; C: 16.61%; D: -2.079%; E: 13.3%. With CCCn1cnnc1CNC(=O)CC1C(=O)NCCN1CC=C(C)C (stereo not given) the screen gave A: -5.157%; B: -7.813%; C: 7.868%; D: 0.09056%; E: 5.293%. Result for COc1ccc2[nH]c3c(N(C)CC4OCCO4)ncnc3c2c1 was A: -23.74%; B: -28.02%; C: 6.129%; D: -2.925%; E: -41.88%. CCOc1ccc(-n2nc(C)c(CC(C)=O)c2C)cc1C(N)=O read A: -9.997%; B: 6.289%; C: -3.27%; D: 7.654%; E: 5.664%.

COc1ccc(-c2nc(CN3CCc4c(ncn4C)C3)cs2)cc1 read A: 24.57%; B: 23.14%; C: -4.265%; D: -3.517%; E: -11.05%. [H][C@@]12CCCN1C[C@H](CCSC)N(Cc1cnn(C=C)c1C)C2 gave B: 35.49% and -5.806%; E: 7.035%. For Cc1nc(CN2CCO[C@@H]3CN(Cc4ccsc4)C[C@@H]3C2)cs1 the result was A: -1.135%; C: -10.75%; D: 5.703%. CC(C)CCC(=O)N1CCCC1c1nnc2n1CCCCC2 (stereo not given) read A: -3.475%; B: 21.93%; C: -5.828%; D: 8.928%; E: 15.64%.

CCN(C)c1ncc2c(c1C(=O)O)CCN(C1CCOC1)C2.O=C(O)C(F)(F)F.O=C(O)C(F)(F)F (stereo not given) gave B: -0.5261%; E: -3.937%. With CCCc1nc(CN(CC)Cc2ccc(O)c(C(=O)O)c2)no1 the screen gave A: -8.079%; B: -11%; C: -18.51%; D: 1.836%; E: -8.156%. Result for CCN(Cc1ccccc1)C(=O)c1cc(C2CCCN2C)ccn1 (stereo not given) was A: 4.643%; B: -14.43%; C: -15.66%; D: -0.5705%; E: 4.679%. For Cc1cc(C)nc(N2CCC(c3cncc(-n4ccnc4)n3)CC2)n1 the result was A: -11.8%; B: 9.953% and 0.06731%; C: 8.421%; D: 3.842%; E: -14.45%.

Cc1ccc(NC2CCN(C(=O)Cc3csc(C)n3)CC2)nn1 read A: -1.077%; B: 13.85%; C: 3.159%; D: 3.901%; E: 3.963%. COc1ccc(C)cc1CNC(=O)C1=NN(c2ccccc2)C(=O)CN1 gave A: 5.355%; B: 34.24%; C: -25.16%; D: 5.462%; E: 14.43%. O=C(O)C(F)(F)F.O=C(O)C(F)(F)F.[H][C@@]12C[C@@H](OCc3cccnc3)CN1CCN(C(=O)c1ccnnc1)C2 read B: 23.09%; E: -17.06%. CCOc1cc2c(cc1CN1CCC3(CC1)CNC(=O)C3)CCC2 gave A: 18.56%; B: -3.369%; C: 7.536%; D: -5.449%; E: 13.74%.

For O=C(NC1(c2nccs2)CCCC1)c1cc(C2CC2)[nH]n1 the result was A: -16.36%; B: 1.792%; C: -40.09%; D: 4.114%; E: -4.004%. CC(NC(=O)c1cc2n(n1)CCCN(C(C)C)C2)c1cn2ccsc2n1 (stereo not given) gave A: -2.822%; B: 14.5%; C: -16.68%; D: 1.205%; E: -0.05294%. For CC(C)(C)c1ncc2c(n1)CN(C(=O)c1ccc(-n3cnnn3)cc1)C2 the result was A: -6.593%; B: -7.33%; C: -2.595%; D: 0.03592%; E: -0.7692%. Result for CNS(=O)(=O)c1ccc(CN2CCCN(CC(C)C)CC2)cc1 was A: -7.455%; B: 9.453%; C: -1.753%; D: 4.368%; E: 3.805%.

For Cn1ccc(CN2CCC(Cc3ccccc3)CC2)cc1=O the result was A: -2.154%; B: -16.31%; C: -20.1%; D: -2.117%; E: -0.7012%. With CCC[C@H]1CN(c2nccc(OC)n2)C[C@@H]1NS(=O)(=O)N(C)C the screen gave A: -6.961%; B: 16.03%; C: -28.71%; D: 0.6091%; E: -2.366%. For Cn1cncc1CNC1CC2(CCN(S(C)(=O)=O)CC2)c2ccccc21 (stereo not given) the result was A: -2.348%; C: -3.501%; D: 4.132%. Result for O=C(NCc1ccccc1Cn1cncn1)C1CC1 was A: -3.263%; B: 10.31%; C: -2.175%; D: 0.1455%; E: -8.779%.